# Measured values reported in the supplement of paper PMC8166895.
# “And” between values parts separate entries of the source, which are not always exact repeats. Equal entries are not always repeated. Structures can show the parent of a compound that is named as a salt. The list shows a part of the results. Most entries show no effect beyond the scatter of the controls.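 Melting temperature was read by differential scanning fluorimetry in a single-replicate pilot screen of a library of approved drugs and clinical or known-target compounds. Compounds raising the melting point by at least 2 °C were the top stabilizing hits, and negative shifts mean destabilization.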
# Test system: SARS-CoV-2 main protease (Mpro, nsp5)
# Assay: thermal shift ΔTm of Mpro relative to plate average Tm; higher = stronger thermal stabilization of Mpro (binding)
# Details: 10 µM; protein concentration 1 µM
row,Compound,thermal shift ΔTm of Mpro
1,"O=C(CCCCCCC(=O)Nc1ccccc1)NO [Vorinostat (SAHA, MK0683)]",-0.0843 °C
2,CCNC(=O)CCC/C=C\C[C@@H]1[C@@H](/C=C/[C@@H](O)CCc2ccccc2)[C@H](O)C[C@@H]1O [Bimatoprost],0.188 °C
3,COC(=O)C1=C(C)NC(C)=C(C(=O)OC2CCCN(Cc3ccccc3)C2)C1c1cccc([N+](=O)[O-])c1 (configuration not stated) [Benidipine HCl],-0.172 °C
4,COC(=O)N[C@H](C(=O)N1CCC[C@H]1c1nc(-c2ccc3c(c2)O[C@@H](c2ccccc2)n2c-3cc3cc(-c4c[nH]c([C@@H]5CCCN5C(=O)[C@@H](NC(=O)OC)C(C)C)n4)ccc32)c[nH]1)C(C)C [Elbasvir],0.0588 °C
5,Cc1ccc(NC(=O)c2cccc(N(C)C)c2)cc1NC(=O)c1ccc(O)cc1,0.000703 °C
6,O=C1NCCc2[nH]c(-c3ccncc3)cc21,0.113 °C
7,COc1ccc(C2=C(N3CCOCC3)C(=O)N(c3ccc(Cl)c(Cl)c3)C2=O)cc1,0.081 °C
8,O=C(Nc1cc2cc[nH]c2cn1)c1ccccc1,-0.0908 °C
9,COc1ccc(S(=O)(=O)Nc2cccnc2Nc2ccc(O)cc2)cc1,0.0982 °C
10,c1cc2c(cc1[C@H]1OC[C@H]3[C@@H]1CO[C@@H]3c1ccc3c(c1)OCO3)OCO2 [Sesamin],0.00188 °C
11,O=C1CC(=O)c2c(Cl)c(Cl)c(Cl)c(Cl)c21,0.592 °C
12,O=C(O)c1ccc2c(c1)nc(Nc1cccc(Cl)c1)c1ccncc12 [CX-4945 (Silmitasertib)],0.219 °C
13,CC1(C)O[C@@H]2C[C@H]3[C@@H]4CCC5=CC(=O)C=C[C@]5(C)[C@H]4[C@@H](O)C[C@]3(C)[C@]2(C(=O)CO)O1 [Desonide],-0.176 °C
14,Nc1nonc1C(=Nc1ccc(F)c(Cl)c1)NO,-0.0272 °C
15,CCN(CC)CCOc1ccc2c(c1)C(=O)c1cc(OCCN(CC)CC)ccc1-2 [Tilorone dihydrochloride],0.214 °C
16,NCCCCCNCC12CC3CC(CC(C3)C1)C2 [IEM 1754 dihydrobroMide],-0.246 °C
17,Cc1cc(OCCCS(C)(=O)=O)cc(C)c1-c1cccc(COc2ccc3c(c2)OC[C@H]3CC(=O)O)c1,-0.0926 °C and 0.0564 °C
18,CCN(CC)C(=S)SSC(=S)N(CC)CC [Disulfiram],-6.99 °C
19,O=C(CCCCCN1C(=O)c2cccc3cccc(c23)C1=O)NO [Scriptaid],-0.0612 °C
20,O=C(O)[C@@H]1CSCN1 [Thioproline],0.0578 °C
21,C=C[C@@]1(C)CC(=O)[C@]2(O)[C@@]3(C)[C@@H](O)CCC(C)(C)[C@@H]3[C@H](O)[C@H](OC(C)=O)[C@@]2(C)O1 [Forskolin],-0.0452 °C
22,COc1ccc(CN2CCNCC2)c(OC)c1OC [Trimetazidine dihydrochloride],0.388 °C
23,COc1cc2/c(=N/c3ccc(Br)cc3F)nc[nH]c2cc1OCC1CCN(C)CC1 [Vandetanib (ZD6474)],-0.0147 °C
24,Cn1cc(C[C@@H](N)C(=O)O)c2ccccc21 [Indoximod],-0.00687 °C
25,C/C(=C(\CCOP(=O)(O)O)SC(=O)c1ccccc1)N(C=O)Cc1cnc(C)nc1N [Benfotiamine],0.0742 °C
26,Cc1noc(-c2ccc(-c3ccc(CC(=O)O)cc3)cc2)c1NC(=O)O[C@H](C)c1ccccc1,-0.0531 °C

row,Compound,thermal shift ΔTm of Mpro
1,CCCCC(CC)COC(=O)C(C#N)=C(c1ccccc1)c1ccccc1 (configuration not stated) [Octocrilene],-0.203 °C
2,Nc1c2c(nc3ccccc13)CCCC2 [Tacrine hydrochloride hydrate],0.229 °C
3,O=c1sn(-c2cccc3ccccc23)c(=O)n1Cc1ccccc1 [Tideglusib],-18.1 °C
4,NC(N)=NCC(=O)O [Guanidoacetic acid],0.0149 °C
5,O=c1cc(-c2ccccc2)oc2cc(O)cc(O)c12 [Chrysin],-0.0275 °C
6,C[C@H](O)C(=O)[O-].[Na+] [(L)-Sodium lactate],0.12 °C
7,COc1ccc2c(c1)c(C1=C(c3c[nH]c4ccccc34)C(=O)NC1=O)cn2CCCN(C)C,-0.033 °C
8,CC(C)(C)C(=O)C(Oc1ccc(Cl)cc1)n1ccnc1 (configuration not stated) [Climbazole],0.129 °C
9,Cc1ccccc1OCC(O)CO (configuration not stated) [Mephenesin],-0.0923 °C
10,CC(C)N(CCCNC(=O)Nc1ccc(C(C)(C)C)cc1)C[C@H]1O[C@@H](n2cc(Br)c3c(N)ncnc32)[C@H](O)[C@@H]1O,-0.0906 °C
11,C[C@H](N)[C@H](O)c1cccc(O)c1 [Metaraminol bitartrate],-0.181 °C
12,COC(=O)c1ccccc1NC(=O)c1ccc(F)cc1,-0.23 °C
13,COc1cccc(Oc2c(NS(=O)(=O)c3ccc(C(C)(C)C)cc3)ncnc2OCCO)c1,-0.0408 °C
14,CCN(CC)CCOC(=O)C(Cc1cccc2ccccc12)CC1CCCO1 (configuration not stated) [Nafronyl oxalate],0.0796 °C
15,Cn1cc(-c2nc(N[C@@H]3CCCC[C@@H]3N)c(F)c3c2C(=O)NC3)cn1 [TAK-659 hydrochloride],0.0932 °C
16,CC1(C)S[C@@H]2[C@H](NC(=O)C(C(=O)O)c3ccccc3)C(=O)N2[C@H]1C(=O)O (some centres not stated) [Carbenicillin disodium],-0.0804 °C
17,O=C1CN(/N=C/c2ccc(-c3ccc([N+](=O)[O-])cc3)o2)C(=O)N1 [Dantrolene sodium salt],0.0679 °C
18,O=C1CN(/N=C/c2ccc(-c3ccc([N+](=O)[O-])cc3)o2)C(=O)N1 [Dantrolene sodium hemiheptahydrate],0.0167 °C
19,Nc1[nH]nc2nnc(-c3c(-c4ccccc4)nn4ccccc34)cc12,-0.162 °C
20,CCOC(=O)n1ccn(C)c1=S [Carbimazole],0.00367 °C
21,CC1(O)CCC(C(C)(C)O)CC1 (configuration not stated) [Terpin Monohydrate],-0.0085 °C
22,COc1cc(N2CCC(N)CC2)ccc1Nc1ncc(Cl)c(-c2c[nH]c3ccccc23)n1,0.531 °C
23,O=c1cc[nH]c2ccccc12 [4-Hydroxyquinoline],-0.00671 °C
24,CC1(C)S[C@@H]2[C@H](NC(=O)[C@H](C(=O)O)c3ccsc3)C(=O)N2[C@H]1C(=O)O [Ticarcillin disodium],0.284 °C
25,COc1c/c(=C2\C=c3ccccc3=N2)[nH]/c1=C\c1[nH]c(C)cc1C [Obatoclax Mesylate (GX15-070)],0.599 °C
26,O=C(N[C@H]1CN2CCC1CC2)c1ccc(Cl)cc1,0.013 °C

# Part of the list above, bar-delimited:
row | Compound | thermal shift ΔTm of Mpro
2 | Nc1c2c(nc3ccccc13)CCCC2 [Tacrine hydrochloride hydrate] | 0.229 °C
3 | O=c1sn(-c2cccc3ccccc23)c(=O)n1Cc1ccccc1 [Tideglusib] | -18.1 °C
